The record followed here is article PMC10325077.

The chains behind the UniProt entries cited, without tags or fusion partners.
UniProt P19474: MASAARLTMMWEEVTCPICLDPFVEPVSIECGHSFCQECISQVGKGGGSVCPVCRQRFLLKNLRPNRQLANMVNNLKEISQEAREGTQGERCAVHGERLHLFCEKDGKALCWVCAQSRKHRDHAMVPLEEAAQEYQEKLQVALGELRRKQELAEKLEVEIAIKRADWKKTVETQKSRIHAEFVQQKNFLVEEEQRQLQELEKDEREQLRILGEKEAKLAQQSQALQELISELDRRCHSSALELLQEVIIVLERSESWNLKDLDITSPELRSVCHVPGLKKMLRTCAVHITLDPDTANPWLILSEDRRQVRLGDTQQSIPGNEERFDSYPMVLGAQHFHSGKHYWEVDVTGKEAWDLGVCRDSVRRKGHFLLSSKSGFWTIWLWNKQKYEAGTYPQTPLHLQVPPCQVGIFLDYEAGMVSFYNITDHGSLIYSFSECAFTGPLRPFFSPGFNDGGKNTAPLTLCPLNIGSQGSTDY

Results are given in words; binding and its absence hold for the method and conditions named. Binding seen in cells or lysates may run through a third protein.

In assay [1] the target is Flag-GST-tagged PR8 M1 (influenza A virus A/Puerto Rico/8/34 (PR8)) (UniProt P03485). The assay can be described thus: co-IP.
Assay [2] addresses M1 protein of PR8 virus (in infected cells) (influenza A virus A/Puerto Rico/8/34 (PR8)) (UniProt P03485). The assay can be described thus: co-IP.

In the case of “Myc-tagged TRIM21 (tripartite motif-containing protein 21) (from UniProt P19474 1-475) (enzyme)”, the binding result in assay [1] is listed as “no binding”.

For the substance “TRIM21 (endogenous, A549 cells) (from UniProt P19474 1-475) (enzyme)”, the binding result in assay [2] was “no binding”.
